The whole screen tested about 31,000 sequences, of which about 1,400 (4.5%) were called active.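 How the source made its calls: active means median seed-adjusted z-score above 1 or below -1; inactive means the rest.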 This is one part of the list.

This assay can be described thus: Novel Modifiers of Survival Motor Neuron (SMN) Protein: Gene Identification via Genome-wide siRNA Screen.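 Further: luminescence tracks full-length SMN protein made from the SMN2 reporter.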 The conditions noted are these: HEK293T SMN2-luciferase reporter, siRNA knockdown, 72 h; actives lie on both sides. The method, boiled down: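 Luciferase signal, proportional to full-length SMN made from an SMN2 cDNA reporter in stable HEK293T cells, was read 72 h after siRNA reverse transfection. Values were expressed as MAD scores after non-targeting-control normalization and log10 conversion; seed analysis flagged off-targets.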
Background: In a reporter assay the amount or activity of a reporter protein is the signal.
Consider CUGUCAUACUCCAAUGUAATT against GLYATL2, for which the median seed-adjusted z-score is inactive: -0.947.

For GCAUCGUCAUGAUCACCAATT against PTPRU, the median seed-adjusted z-score was inactive: 0.

As for CACUUUAGCCUUUACGACATT against HERC1, the median seed-adjusted z-score was inactive: 0.168.

In the case of GGAGUCAACGGACAGGUUATT against PCDHA7, the median seed-adjusted z-score is inactive: 0.552.

Regarding CUCUUGGUGUUGGAACUCATT against OXSM, the median seed-adjusted z-score is inactive: 0.22.

CGACUACAUGUUCAAGAUUTT against RAB3A: the median seed-adjusted z-score is inactive: -0.0787.

As for CCGAUUUCAUCAUCACGCATT against MTHFR, the median seed-adjusted z-score is inactive: 0.

With GACUGAUCUUCUAAGUUCATT against KIF11, the median seed-adjusted z-score was inactive: -0.381.

In the case of GGACAUUUACUGGGACGAUTT against BEST3, the median seed-adjusted z-score is inactive: -0.211.

For the sequence GCUUGAUUCUGUGAUUGAATT against AK2, the median seed-adjusted z-score was inactive: 0.418.

For GUAUUAUUUUCGUACACGATT against RABL3, the median seed-adjusted z-score is inactive: 0.843.

As for GCAAGACCACGCUCCUUUATT against ARL11, the median seed-adjusted z-score is active: 1.

Regarding CCUCGUCCGUAGUCUCCUUTT against ADRB1, the median seed-adjusted z-score was active: 1.06.

Turning to GGAUCACUACCGCUACUGATT against AHCY, the median seed-adjusted z-score is inactive: -0.189.

For the sequence GCUUGUUCGGCUACACGAATT against CYP8B1, the median seed-adjusted z-score is inactive: 0.

As for CGAUAUAGUUUUACGAAGATT against LNX2, the median seed-adjusted z-score is inactive: 0.

As to GGAUCUCUGGAACAGCUCATT against ERCC1, the median seed-adjusted z-score was inactive: -0.566.

Consider GGUGGUCGAUAAGGACUUUTT against OBP2B, for which the median seed-adjusted z-score was inactive: -0.642.

As to GCAAGUUAGUGGAUUAAAATT against FOXP1, the median seed-adjusted z-score was inactive: -0.198.

As to GCAGCAACCACUUACUAGATT against FOXP1, the median seed-adjusted z-score is inactive: -0.198.

On to AGGUGGAGAUUCUCCAGCATT against ID1, for which the median seed-adjusted z-score is inactive: 0.

In the case of UAACAACUUCCAAUCCAAATT against SPINLW1, the median seed-adjusted z-score is inactive: 0.00582.

Turning to AAGGCUUCCUGAACUACUATT against IDUA, the median seed-adjusted z-score was inactive: -0.353.

Take GCAUCCUUAGCUUUACGUATT against ANK3: the median seed-adjusted z-score was inactive: 0.0252.

Consider GCAUUAGCGCAGCUCGAGATT against CACNB1, for which the median seed-adjusted z-score was inactive: 0.225.

As for CCAGAUCCGAGACUAUGUATT against RAB37, the median seed-adjusted z-score is inactive: 0.0678.

With CCUUCGAUCUUCAAGCCGATT against SEMA6C, the median seed-adjusted z-score was inactive: 0.321.

Take UGAAAUAUCUGCGUCAGAATT against GLYATL1: the median seed-adjusted z-score was inactive: 0.0148.

On to GAUAGAUAGGAAUCCAUUUTT against TBX18, for which the median seed-adjusted z-score is inactive: 0.424.

With GUAUAUAAACAGACAAUGATT against DNAJC8, the median seed-adjusted z-score is active: -1.62.

Turning to GGAUCUGAUCUACAAGGCATT against PXK, the median seed-adjusted z-score is inactive: -0.4.

With GGAAUGCAGUAGCAAAGAATT against MCOLN2, the median seed-adjusted z-score is inactive: -0.0234.

Turning to CUAUGAAAAUUGCAGGAGATT against GCM2, the median seed-adjusted z-score was inactive: -0.241.

With CACCCGCAGUGAAACGAAATT against TMPRSS11F, the median seed-adjusted z-score is inactive: -0.289.

Consider AGCUCAUCUUUCACCGGCATT against SPSB1, for which the median seed-adjusted z-score was inactive: -0.378.

With GCAUCCCACUACUACAAAUTT against KSR2, the median seed-adjusted z-score is inactive: -0.371.

Turning to CCAUCGUGUUGGUCAAAUUTT against HTR3B, the median seed-adjusted z-score was inactive: 0.153.

For the sequence ACAACUUGUUGUUAAAGGATT against IL10, the median seed-adjusted z-score is inactive: 0.0967.

CAUCACCUGUAGAACCUGATT against PIAS2: the median seed-adjusted z-score is inactive: -0.096.

For the sequence GUACUUUCAUAGCCGGCAATT against FMO1, the median seed-adjusted z-score was inactive: 0.323.

For the sequence GGAUGACCACAAAUGGAGATT against PIGO, the median seed-adjusted z-score was inactive: -0.218.

Consider GGGUAGCUAUCUUACGAGATT against PAPSS2, for which the median seed-adjusted z-score was inactive: -0.201.

For CCCUAAUGGUGCUAUCUUUTT against PPOX, the median seed-adjusted z-score is inactive: 0.519.

GGACUUAAUUCUCAGAUUUTT against STK38L: the median seed-adjusted z-score was inactive: 0.079.

CCGAGAACCUCACAGAGAATT against FTSJ2: the median seed-adjusted z-score was inactive: -0.277.

For the sequence CUAAGGAAGUAGUUGAUUATT against HADHB, the median seed-adjusted z-score was inactive: -0.188.

In the case of GCCUAGCAAUAGCAAGAUATT against PGDS, the median seed-adjusted z-score was inactive: 0.02.

For the sequence GUGUGCAUUUUGACAGAGATT against XYLB, the median seed-adjusted z-score is inactive: -0.414.

As for GAGAUAUUUGAGUCGUUAATT against GBP7, the median seed-adjusted z-score was inactive: 0.

On to CACUGUGAAUGAUAAGCUGTT against DNMT3A, for which the median seed-adjusted z-score was inactive: -0.643.

Consider GCCCUCAGGUUAUUGCGUATT against CACNA1A, for which the median seed-adjusted z-score is inactive: -0.467.

Take GGAAAUUUGUGAGGCCUUUTT against DUS2L: the median seed-adjusted z-score is inactive: -0.705.

As to GAACGACAGUUGUCAAAAUTT against KATNAL2, the median seed-adjusted z-score was inactive: -0.85.

For GCUGCUUAUUUGAAUCCUUTT against SDHD, the median seed-adjusted z-score is inactive: -0.538.

For GGCUAUUAUUGACAUGGUUTT against PDE8B, the median seed-adjusted z-score was inactive: 0.217.

Take CUUCUAACCUUGGAGCUCATT against PHGDH: the median seed-adjusted z-score is inactive: 0.108.

For the sequence GUUUCAUCGUAUAUCAAUATT against HSD17B13, the median seed-adjusted z-score was inactive: -0.329.

For UCAUCUACUACAAAACCUATT against GAL3ST2, the median seed-adjusted z-score was inactive: 0.

For GGUUCGGCAUGAGUGUGAATT against ZNF187, the median seed-adjusted z-score was inactive: 0.419.

As to GACUAUGAAUUGCUGCAGATT against PCDHGC5, the median seed-adjusted z-score is inactive: -0.0264.

Take GGCCUGCUCUGUUCACCUUTT against CDIPT: the median seed-adjusted z-score is inactive: 0.303.

For GGACCAGGAUUCUAUUACUTT against TAF1, the median seed-adjusted z-score is inactive: -0.582.

As to GCGGCAAGGGUUUCAAGCATT against FIZ1, the median seed-adjusted z-score is inactive: 0.154.

Take GCUUUUGAACUAUUUGAUATT against CETN3: the median seed-adjusted z-score was inactive: -0.0815.

On to GGUUGCACCGGAUCCAAUATT against SYPL2, for which the median seed-adjusted z-score was inactive: 0.233.

Regarding GCAAUGCAGUCUUCCAAUUTT against DDX18, the median seed-adjusted z-score is inactive: 0.241.

With GCAUGUAUGUACUCAGGUUTT against TBX4, the median seed-adjusted z-score was inactive: 0.968.

Take CAACAUUCUGUUUACCUUUTT against FCGR2B: the median seed-adjusted z-score was inactive: -0.163.

As for GAAGUCGGGUUGGACCUUATT against ZDHHC24, the median seed-adjusted z-score was inactive: -0.695.

For CCUACUACCGGGAUGCUCATT against RAB26, the median seed-adjusted z-score is inactive: 0.171.

Take CAGCGACUUUUCUCUUUAATT against IDI1: the median seed-adjusted z-score was inactive: -0.0118.

As for CAGCGGAUCUUCACUCAAATT against NLGN1, the median seed-adjusted z-score is inactive: 0.187.

As for CGGUCUUUCUUAUUCAGUATT against ZDHHC4, the median seed-adjusted z-score was inactive: 0.181.

As for GGUUAAACUAAGAAUCCAATT against DBF4, the median seed-adjusted z-score was inactive: -0.319.

In the case of CCUUACAAGUCAUAGGAGATT against ZNF160, the median seed-adjusted z-score is inactive: -0.454.

As to CUCUGGAUAUGAUAUCGAATT against LRP2, the median seed-adjusted z-score was inactive: -0.512.

Consider GGAACAAACCCUUAGCUAATT against SLITRK1, for which the median seed-adjusted z-score was inactive: 0.215.

With GGGAAUUACUGAUCGUUCATT against TRIM4, the median seed-adjusted z-score is inactive: 0.

In the case of GCUGCUAUGAGGUCUCGUATT against KLC1, the median seed-adjusted z-score is inactive: -0.0912.

As for CAGAAGGCGUGAAAAGAUUTT against RGS10, the median seed-adjusted z-score is inactive: 0.304.

Take GAUUGAACAGAUGCAGUCATT against KRT77: the median seed-adjusted z-score is inactive: -0.0863.

With GUGGGAAACCUGUCGAGGATT against PPP1R14A, the median seed-adjusted z-score is inactive: 0.0124.

Turning to GUAAUAUUGUAGAAAAGCATT against SERPINB7, the median seed-adjusted z-score is inactive: 0.584.

As for GCAAUGGAGCUGUGGAGGATT against CD44, the median seed-adjusted z-score is inactive: 0.

CAACUGGGAUGAUACUUAUTT against L3MBTL: the median seed-adjusted z-score was inactive: 0.0232.

For the sequence GUUUAGACCUAACCCAAUATT against TARBP1, the median seed-adjusted z-score was inactive: 0.491.

For CUACGUGACUGAGCUAACATT against GBP7, the median seed-adjusted z-score is inactive: 0.

On to CUGCGGACGUGGUUCUGUUTT against UCK1, for which the median seed-adjusted z-score is inactive: -0.599.

Turning to CCGUCUCCAUCUGUAAGAATT against ZDHHC16, the median seed-adjusted z-score is inactive: 0.0194.

Turning to GGCUUCUACUGGUGUCUGATT against PIGR, the median seed-adjusted z-score is inactive: -0.35.

For GGAACACUAUGAUGAGUUUTT against U2AF1, the median seed-adjusted z-score was active: 2.08.

Consider GCGGUUUACUAUAGACAAATT against IKBKAP, for which the median seed-adjusted z-score was inactive: -0.0316.

For CAGAUGAAGUGAUCGGUGATT against CIITA, the median seed-adjusted z-score was inactive: -0.109.

On to CCAAGGAGUUCGAACCUAATT against HFE, for which the median seed-adjusted z-score is inactive: -0.677.

As for CCUCUUAUGGUGACUUAAATT against SFRS5, the median seed-adjusted z-score is inactive: 0.346.

Regarding CAGCAGAGGAUGAACCCAATT against ZFYVE27, the median seed-adjusted z-score is inactive: 0.0439.

As for GGAAGGCAGAUGUAUCUUUTT against CMPK1, the median seed-adjusted z-score is inactive: -0.363.

For UCCUUGUUGUGGACAGGGATT against SPINK4, the median seed-adjusted z-score was inactive: -0.0134.

Regarding GGCAAUUGAUAAGAAGGUATT against RAPGEF1, the median seed-adjusted z-score was inactive: 0.304.

Turning to GCAGUUGAAUUAUCACAGUTT against UQCRFS1, the median seed-adjusted z-score is active: -1.28.

In the case of GAAACUUAAUAAGCUGAUUTT against DNAJC3, the median seed-adjusted z-score is inactive: 0.502.

Consider CCAAGUUUAUAUCAUAUUATT against GNG4, for which the median seed-adjusted z-score was inactive: -0.188.

In the case of GCAGAAUUACAUAAACGAATT against KL, the median seed-adjusted z-score was inactive: -0.267.

Consider CCCUAACUUUGUUCGUUGUTT against MYH10, for which the median seed-adjusted z-score is inactive: 0.0877.

For CGCCUGCUACUUUUACGAATT against FZD10, the median seed-adjusted z-score is inactive: -0.226.

CUCAUCCAUUCUUACCAAATT against UGT2B10: the median seed-adjusted z-score is inactive: 0.989.

In the case of GCUCUAUGUAUGCAUUGAATT against ZNF585A, the median seed-adjusted z-score is inactive: -0.168.

As for CAUGCUUUGUCCUAGAGAATT against MAGED1, the median seed-adjusted z-score was inactive: 0.524.

Values taken from PubChem BioAssay AID1347426 (Functional Genomics Laboratory (NCATS/FGL), 2020).
